Data as given in PubChem BioAssay AID1224826 (NIAID, 2016).
Screen: 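Knock-downs that raise or lower Tnf reporter signal after endotoxin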 (primary screen). System: RAW264.7 G9 macrophages from mouse bearing reporters for p65 (GFP) and the Tnf promoter (mCherry). Knock-down reagent: siRNA pool against mouse genes, 100 nM. Time to read-out: 16 h of LPS stimulation, after 2 days of siRNA transfection. Conditions: bacterial lipopolysaccharide (Salmonella minnesota R595), 10 ng/ml. Read-out: 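Nuclear mCherry signal of the Tnf promoter reporter measured by imaging after background removal, scaled to each plate median and turned into robust z-scores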. Direction: Tnf reporter robust z-score: higher = stronger Tnf promoter reporter signal after LPS; Tnf reporter intensity: higher = stronger Tnf promoter reporter signal. Call rule: 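Called active when robust z-score is at most -1.3, matching the median of the Tlr4 knock-down control, or over 3; control wells and wells with under 50 cells never active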. Calls: active = Tnf reporter clearly lowered or raised; inactive = no clear change in Tnf reporter.
In all, the deposit lists about 17,000 reagents; shown is an unselected part. About 1,110 of them (6.6%) were called active. 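Active means lowered or raised reporter signal; replicate intensities are raw and not normalised per plate.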 Reagents against one gene are numbered here.

| gene knocked down | reagent | Tnf reporter robust z-score | fewer than 50 cells in well | Tnf reporter intensity, replicate 1 | Tnf reporter intensity, replicate 2 | Outcome |
| --- | --- | --- | --- | --- | --- | --- |
| Ppp2r2d (GeneID 52432) | 1 | – | fewer than 50 cells per well; well left out of calls | 54.3 | 48.7 | inactive |
| Cptp (GeneID 79554) | 1 | -0.28 | enough cells in well | 177 | 199 | inactive |
| Senp3 (GeneID 80886) | 1 | -1.6 | enough cells in well | 54.7 | 37.7 | active |
| Elovl4 (GeneID 83603) | 1 | -0.2 | enough cells in well | 187 | 299 | inactive |
| Fosl2 (GeneID 14284) | 1 | -0.27 | enough cells in well | 270 | 180 | inactive |
| Ch25h (GeneID 12642) | 1 | -1.16 | enough cells in well | 80.4 | 134 | inactive |
| Igbp1 (GeneID 18518) | 1 | -0.04 | enough cells in well | 240 | 181 | inactive |
| Rpl36a (GeneID 19982) | 1 | -0.42 | enough cells in well | 96.5 | 123 | inactive |
| Pax8 (GeneID 18510) | 1 | 0.87 | enough cells in well | 290 | 252 | inactive |
| Plekhg2 (GeneID 101497) | 1 | 0.55 | enough cells in well | 187 | 216 | inactive |
| Rpl5 (GeneID 100503670) | 1 | -1.85 | enough cells in well | 148 | 55.3 | active |
| Cox6b1 (GeneID 110323) | 1 | 2.27 | enough cells in well | 340 | 297 | inactive |
| Immp2l (GeneID 93757) | 1 | 1.6 | enough cells in well | 308 | 194 | inactive |
| Ablim1 (GeneID 226251) | 1 | -0.98 | enough cells in well | 93.7 | 119 | inactive |
| Nphs2 (GeneID 170484) | 1 | -0.65 | enough cells in well | 163 | 161 | inactive |
| Pdcd4 (GeneID 18569) | 1 | 1.85 | enough cells in well | 356 | 323 | inactive |
| Sox7 (GeneID 20680) | 1 | 1.14 | enough cells in well | 174 | 105 | inactive |
| Trp53bp1 (GeneID 27223) | 1 | -0.14 | enough cells in well | 189 | 255 | inactive |
| Ifi44l (GeneID 15061) | 1 | -1.01 | enough cells in well | 171 | 122 | inactive |
| Psmd5 (GeneID 66998) | 1 | -0.6 | enough cells in well | 224 | 129 | inactive |
| Azi2 (GeneID 27215) | 1 | -1.66 | enough cells in well | 79.4 | 65.7 | active |
| Aig1 (GeneID 66253) | 1 | 0.69 | enough cells in well | 276 | 209 | inactive |
| Foxn4 (GeneID 116810) | 1 | -1.17 | enough cells in well | 166 | 72.2 | inactive |
| Mt4 (GeneID 17752) | 1 | -0.21 | enough cells in well | 184 | 114 | inactive |
| Hoxb1 (GeneID 15407) | 1 | 0.54 | enough cells in well | 256 | 245 | inactive |
| Zic5 (GeneID 65100) | 1 | 1.75 | enough cells in well | 185 | 213 | inactive |
| Msx1 (GeneID 17701) | 1 | -0.98 | enough cells in well | 183 | 132 | inactive |
| Plek2 (GeneID 27260) | 1 | -0.1 | enough cells in well | 209 | 210 | inactive |
| Shroom1 (GeneID 71774) | 1 | -0.82 | enough cells in well | 207 | 57.2 | inactive |
| Gnl1 (GeneID 14670) | 1 | 1.1 | enough cells in well | 317 | 238 | inactive |
| Tprg1 (GeneID 71338) | 1 | 1.24 | enough cells in well | 246 | 213 | inactive |
| Cdca7 (GeneID 66953) | 1 | 0.4 | enough cells in well | 190 | 195 | inactive |
| Adra2c (GeneID 11553) | 1 | -0.91 | enough cells in well | 124 | 249 | inactive |
| C130050O18Rik (GeneID 319772) | 1 | -0.79 | enough cells in well | 68.8 | 118 | inactive |
| Gpd1l (GeneID 333433) | 1 | -1.74 | enough cells in well | 79.3 | 57.9 | active |
| Efr3a (GeneID 76740) | 1 | -1.3 | enough cells in well | 88.9 | 104 | active |
| Efr3a (GeneID 76740) | 2 | 1.82 | enough cells in well | 310 | 272 | inactive |
| Tktl1 (GeneID 83553) | 1 | 0.5 | enough cells in well | 193 | 207 | inactive |
| Qtman (GeneID 227835) | 1 | -1.59 | enough cells in well | 104 | 42.2 | active |
| Ocm (GeneID 18261) | 1 | -1.04 | enough cells in well | 173 | 56.6 | inactive |

Only “Tnf reporter robust z-score” (6 entries from above):
Rpl5 (GeneID 100503670)	-1.85
Cox6b1 (GeneID 110323)	2.27
Immp2l (GeneID 93757)	1.6
Ablim1 (GeneID 226251)	-0.98
Nphs2 (GeneID 170484)	-0.65
Pdcd4 (GeneID 18569)	1.85
